# PubChem BioAssay AID1259254 – NCATS – 2017
# Purpose: 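Gene knock-downs that lead to re-replication, shown by excess G2 DNA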 (primary screen)
# Cell system: human HCT116 colorectal cancer cells
# Reagents: single siRNA against human genes
# Time to read-out: 3 days
# Read-out: 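Imaged Hoechst DNA stain sorts each cell into a cycle phase by DNA amount; per plate, G2 fraction set to 0% for non-targeting and 100% for GMNN siRNA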
# Reading the numbers: G2 robust z-score and G2 cells, % of GMNN control: higher = more G2 cells, more excess DNA replication; raw share of cells in G2: higher = larger share of cells with G2 DNA content
# Active means: 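Active siRNAs have a G2 robust z of 5 or more median absolute deviations over the median, which in these data means about 38% or higher of GMNN control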
# Here is a random part of about 59,000 deposited reagents. Of all reagents, about 1,550 (2.6%) got an active call. 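G2 share is only a proxy for re-replication; each gene was hit by three separate siRNAs, and active genes were retested.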 Raw values vary from plate to plate and are shown uncorrected. Not stated in the record: the amount of reagent.
target gene,PubChem SID,G2 robust z-score,"G2 cells, % of GMNN control",raw share of cells in G2 (%),outcome
KDM3B,SID160731401,0.00924,3.03,3.86,inactive
KDM3B,SID160741351,-0.221,1.41,6.55,inactive
KDM3B,SID160741352,-0.624,-1.43,3.18,inactive
DDX50,SID160748471,0.25,4.72,5.94,inactive
DDX50,SID160748472,-0.0019,2.95,5.39,inactive
DDX50,SID160748473,-1.05,-4.39,3.83,inactive
ST13,SID160717421,1.47,13.3,8.75,inactive
ST13,SID160717422,1.13,10.9,9.95,inactive
ST13,SID160717423,-0.7,-1.96,2.4,inactive
ANXA5,SID160717845,-0.148,1.92,4.71,inactive
ANXA5,SID160717854,-0.319,0.725,4.97,inactive
ANXA5,SID160717864,4.47,34.4,17.3,inactive
CNDP1,SID160732036,2.47,20.4,14.2,inactive
CNDP1,SID160752664,-0.475,-0.378,4.35,inactive
CNDP1,SID160752665,-0.264,1.11,4.67,inactive
TMEM259,SID160753940,-0.645,-1.57,3.42,inactive
TMEM259,SID160753941,-0.718,-2.09,2.35,inactive
TMEM259,SID160753942,4.58,35.2,14.1,inactive
DEFB112,SID160732784,-0.588,-1.17,2.82,inactive
DEFB112,SID160761956,0.425,5.96,5.74,inactive
DEFB112,SID160761959,-0.263,1.12,3.51,inactive
MKRN1,SID160736671,0.0592,3.38,7.7,inactive
MKRN1,SID160736672,-0.381,0.29,4.28,inactive
MKRN1,SID160736673,5.34,40.5,17.3,active
NSL1,SID160737292,-0.44,-0.129,4.36,inactive
NSL1,SID160737293,2.84,22.9,13.9,inactive
NSL1,SID160737294,0.225,4.55,4.89,inactive
GPC2,SID160761774,0.297,5.06,5.41,inactive
GPC2,SID160761775,-0.78,-2.52,2.27,inactive
GPC2,SID160761776,-0.819,-2.79,2.3,inactive
KCNA4,SID160776113,2.23,18.6,12.1,inactive
KCNA4,SID160776114,0.186,4.28,6.23,inactive
KCNA4,SID160776115,-1.4,-6.85,1.7,inactive
KHNYN,SID160736078,5.21,39.6,19.3,active
KHNYN,SID160736079,-0.74,-2.24,2.97,inactive
KHNYN,SID160736080,-0.996,-4.04,1.89,inactive
C9orf40,SID160742868,2.61,21.3,12.7,inactive
C9orf40,SID160742869,-0.125,2.09,5,inactive
C9orf40,SID160742870,-0.424,-0.0168,3.13,inactive
OR8D2,SID160762793,-0.248,1.22,4.09,inactive
OR8D2,SID160762794,-0.827,-2.85,1.94,inactive
OR8D2,SID160762795,-0.533,-0.784,3.03,inactive
ZBTB2,SID160746433,-0.538,-0.815,2.5,inactive
ZBTB2,SID160746434,-1.21,-5.57,3.39,inactive
ZBTB2,SID160746435,-1.12,-4.88,2.1,inactive
PKP2,SID160714401,-0.471,-0.347,4.68,inactive
PKP2,SID160714402,-0.956,-3.76,3.17,inactive
PKP2,SID160714403,-0.734,-2.19,2.84,inactive
C18orf32,SID160768291,-0.854,-3.04,2.45,inactive
C18orf32,SID160768292,-0.615,-1.36,2.9,inactive
C18orf32,SID160768293,-0.807,-2.71,2.2,inactive
SYN1,SID160717593,-0.768,-2.43,4.86,inactive
SYN1,SID160717594,-0.839,-2.94,3.54,inactive
SYN1,SID160717595,0.167,4.14,5.33,inactive
LOC338963,SID160733075,4.28,33.1,17.5,inactive
LOC338963,SID160764142,0.321,5.23,5.78,inactive
LOC338963,SID160764143,0.219,4.51,5.23,inactive
F2,SID160762862,0.322,5.23,7.38,inactive
F2,SID160762874,-1.43,-7.06,2.41,inactive
F2,SID160762882,-0.261,1.13,4.33,inactive
LINGO2,SID160759579,-0.257,1.16,5.13,inactive
LINGO2,SID160759580,1.25,11.8,9.64,inactive
LINGO2,SID160759581,3.45,27.3,19,inactive
ADAM11,SID160777073,-0.162,1.83,6.2,inactive
ADAM11,SID160777074,0.852,8.96,8.08,inactive
ADAM11,SID160777075,-1.16,-5.18,1.98,inactive
DUS4L,SID160729849,0.97,9.79,7.22,inactive
DUS4L,SID160729850,2.78,22.5,15.4,inactive
DUS4L,SID160729851,0.856,8.99,7.16,inactive

Taken from above:
Entry for C9orf40 [SID160742869] in “raw share of cells in G2 (%)”: 5
DEFB112 [SID160732784], G2 robust z-score: -0.588
Entry for KDM3B [SID160741352] in “G2 cells, % of GMNN control”: -1.43
For “G2 cells, % of GMNN control”, DUS4L [SID160729850] reads 22.5
OR8D2 [SID160762795], outcome: inactive
